Laboratory results reported in doi:10.1101/2024.08.17.24311658.
These are yes or no findings as the source states them, for the method shown. Binding seen in cells or lysates may run through a third protein. Some results given as binding are weak or reduced against the parent protein; the word gives no strength. Tags and fused reporters may be left off the sequences shown.

T1: mCherry-SNX17 (UniProt Q15036)
T1 sequence: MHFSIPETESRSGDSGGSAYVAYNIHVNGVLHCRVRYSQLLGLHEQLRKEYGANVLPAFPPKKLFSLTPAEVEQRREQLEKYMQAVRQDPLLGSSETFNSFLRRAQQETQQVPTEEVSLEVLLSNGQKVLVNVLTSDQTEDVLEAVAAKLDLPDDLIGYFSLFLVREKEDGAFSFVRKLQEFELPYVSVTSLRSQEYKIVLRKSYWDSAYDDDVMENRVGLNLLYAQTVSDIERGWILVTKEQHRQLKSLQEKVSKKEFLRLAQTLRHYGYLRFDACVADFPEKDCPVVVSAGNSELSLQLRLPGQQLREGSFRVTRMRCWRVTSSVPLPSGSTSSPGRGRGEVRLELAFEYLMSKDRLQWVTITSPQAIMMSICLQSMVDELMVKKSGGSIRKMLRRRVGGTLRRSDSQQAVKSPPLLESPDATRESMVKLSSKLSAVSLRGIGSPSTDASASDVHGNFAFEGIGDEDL


Molecular target: T1, mCherry-SNX17
Assay: co-IP

Row | Binder | binding
1 | NPIA mutant of the Human-SLITRK2 cytoplasmic tail chimera (domain or fragment, UniProt Q9H156 643-845) VLKRRKGVPSVPRNTNNLDVSSFQLQYGSYNTETHDKTDGHVYNYIPPPVGQMCQNPIAMQKEGDPVAYYRNLQEFSYSNLEEKKEEPATPAYTISATELLEKQATPREPELLYQNIAERVKELPSAGLVHYNFCTLPKRQFAPSYESRRQNQDRINKTVLYGTPRKCFVGQSKPNHPLLQAKPQSEPDYLEVLEKQTAISQL | no binding
2 | YYTKLQGKSLFGFSGSHSYSPITVESDFSNPLYEAGDTREYEVSI (domain or fragment, UniProt Q6UXD5 866-910) [GFP-tagged wild-type cytoplasmic tail domain of Human-SEZ6L2] | binds
3 | YFSRLQGKSSLQLPRPRPRPYNRITIESAFDNPTYETGSLSFAGDERI (domain or fragment, UniProt Q53EL9 947-994) [GFP-tagged wild-type cytoplasmic tail domain of Human-SEZ6] | binds
4 | NPIA mutant of the Human-SLITRK3 cytoplasmic tail chimera (domain or fragment, UniProt O94933 676-977) AYVLRRRRKKLPFRSKRQEGVDLTGIQMQCHRLFEDGGGGGGGSGGGGRPTLSSPEKAPPVGHVYEYIPHPVTQMCNNPIAKPREEEEVAVSSAQEAGSAERGGPGTQPPGMGEALLGSEQFAETPKENHSNYRTLLEKEKEWALAVSSSQLNTIVTVNHHHPHHPAVGGVSGVVGGTGGDLAGFRHHEKNGGVVLFPPGGGCGSGSMLLDRERPQPAPCTVGFVDCLYGTVPKLKELHVHPPGMQYPDLQQDARLKETLLFSAGKGFTDHQTQKSDYLELRAKLQTKPDYLEVLEKTTYRF | no binding
5 | TRCRYYSNLRLPLMYSHPYSQITVETEFDNPIYETGETREYEVSI (domain or fragment, UniProt Q9BYH1 980-1024) [GFP-tagged wild-type cytoplasmic tail domain of Human-SEZ6L] | binds

The remaining lines, values ahead:

Row | binding | Binder
6 | binds | chimeric protein of the cytoplasmic tail of Human-SLITRK2 (domain or fragment, UniProt Q9H156 643-845) VLKRRKGVPSVPRNTNNLDVSSFQLQYGSYNTETHDKTDGHVYNYIPPPVGQMCQNPIYMQKEGDPVAYYRNLQEFSYSNLEEKKEEPATPAYTISATELLEKQATPREPELLYQNIAERVKELPSAGLVHYNFCTLPKRQFAPSYESRRQNQDRINKTVLYGTPRKCFVGQSKPNHPLLQAKPQSEPDYLEVLEKQTAISQL
7 | binds | chimeric protein of the cytoplasmic tail of Human-SLITRK5 (domain or fragment, UniProt O94991 686-958) VLVMKRRKKNQSDHTSTNNSDVSSFNMQYSVYGGGGGTGGHPHAHVHHRGPALPKVKTPAGHVYEYIPHPLGHMCKNPIYRSREGNSVEDYKDLHELKVTYSSNHHLQQQQQPPPPPQQPQQQPPPQLQLQPGEEERRESHHLRSPAYSVSTIEPREDLLSPVQDADRFYRGILEPDKHCSTTPAGNSLPEYPKFPCSPAAYTFSPNYDLRRPHQYLHPGAGDSRLREPVLYSPPSAVFVEPNRNEYLELKAKLNVEPDYLEVLEKQTTFSQF
8 | no binding | NPIA mutant of the Human-SLITRK5 cytoplasmic tail chimera (domain or fragment, UniProt O94991 686-958) VLVMKRRKKNQSDHTSTNNSDVSSFNMQYSVYGGGGGTGGHPHAHVHHRGPALPKVKTPAGHVYEYIPHPLGHMCKNPIARSREGNSVEDYKDLHELKVTYSSNHHLQQQQQPPPPPQQPQQQPPPQLQLQPGEEERRESHHLRSPAYSVSTIEPREDLLSPVQDADRFYRGILEPDKHCSTTPAGNSLPEYPKFPCSPAAYTFSPNYDLRRPHQYLHPGAGDSRLREPVLYSPPSAVFVEPNRNEYLELKAKLNVEPDYLEVLEKQTTFSQF
9 | no binding | YYTKLQGKSLFGFSGSHSYSPITVESDFSNPLAEAGDTREYEVSI (domain or fragment, UniProt Q6UXD5 866-910) [ΦxNPxA mutant of the GFP-tagged cytoplasmic tail domain of Human-SEZ6L2]
10 | no binding | YFSRLQGKSSLQLPRPRPRPYNRITIESAFDNPTAETGSLSFAGDERI (domain or fragment, UniProt Q53EL9 947-994) [ΦxNPxA mutant of the GFP-tagged cytoplasmic tail domain of Human-SEZ6]
11 | binds | chimeric protein of the cytoplasmic tail of Human-SLITRK3 (domain or fragment, UniProt O94933 676-977) AYVLRRRRKKLPFRSKRQEGVDLTGIQMQCHRLFEDGGGGGGGSGGGGRPTLSSPEKAPPVGHVYEYIPHPVTQMCNNPIYKPREEEEVAVSSAQEAGSAERGGPGTQPPGMGEALLGSEQFAETPKENHSNYRTLLEKEKEWALAVSSSQLNTIVTVNHHHPHHPAVGGVSGVVGGTGGDLAGFRHHEKNGGVVLFPPGGGCGSGSMLLDRERPQPAPCTVGFVDCLYGTVPKLKELHVHPPGMQYPDLQQDARLKETLLFSAGKGFTDHQTQKSDYLELRAKLQTKPDYLEVLEKTTYRF
12 | no binding | TRCRYYSNLRLPLMYSHPYSQITVETEFDNPIAETGETREYEVSI (domain or fragment, UniProt Q9BYH1 980-1024) [ΦxNPxA mutant of the GFP-tagged cytoplasmic tail domain of Human-SEZ6L]
